From patent publication US20110098184A1, “Competitve differntial screeing” (priority 2004, published 2011)
For at least one compound, name, drawing or mass did not settle the structure. Bridge positions count the residues as written; N and C are the ends. Peptide text beside a SMILES is read from it.

By UniProt entry, the sequences of proteins in these tests, tags left out. Residues count along the entry.
UniProt P49862, 30-253: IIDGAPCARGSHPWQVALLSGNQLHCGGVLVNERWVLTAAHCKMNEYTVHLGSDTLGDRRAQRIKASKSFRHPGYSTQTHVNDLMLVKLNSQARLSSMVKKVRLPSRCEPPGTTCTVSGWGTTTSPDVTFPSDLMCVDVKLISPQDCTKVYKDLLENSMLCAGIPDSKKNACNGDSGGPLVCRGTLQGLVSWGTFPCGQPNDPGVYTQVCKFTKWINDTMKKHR

Target: human stratum cornium chymotrypsin (hSCC) (Homo sapiens, UniProt P49862)
Test: Titration of hSCC with binders, chromogenic substrate suc-AAPF-pNA (inhibitory activity)
Format: biochemical
Conditions: hSCC 0.1 uM, binder 0.1 to 10 uM, approximated

In the case of `C[C@@H](O)[C@@H]1NC(=O)[C@@H](NC(=O)[C@@H]2CCCN2)CSSC[C@@H](C(=O)N[C@@H](Cc2ccc(O)cc2)C(=O)NCC(=O)NCC(=O)NCC(=O)N[C@@H](CCCCN)C(=O)O)NC(=O)[C@H](CCC(N)=O)NC(=O)[C@@H]2CCCN2C(=O)[C@@H]2CCCN2C(=O)[C@H](Cc2ccc(O)cc2)NC(=O)[C@H](CO)NC(=O)[C@H](Cc2ccccc2)NC1=O` [pj02] (H-PCTFSYPPQCYGGGK-OH; disulfide 2-10 (inferred); N-terminus and C-terminus assumed), the Ki is reported as ~500 nM.
